Patent US20160031999A1
Numbering of substitutions follows the chain as printed. Results are given in words; binding and its absence hold for the method and conditions named. Some results given as binding are weak or reduced against the parent protein; the word gives no strength. One block for each binder: values may come before it.

Columns and labels:
[1] = molecular target: human IL-11Rα (form used in the assay not stated) (human) (UniProt Q14626); assay: Biacore (Table 3)
[2] = molecular target: T1, mouse IL-11Rα on transfected cells (mouse) (UniProt P70225); assay: binding to transfected cells
T1 sequence: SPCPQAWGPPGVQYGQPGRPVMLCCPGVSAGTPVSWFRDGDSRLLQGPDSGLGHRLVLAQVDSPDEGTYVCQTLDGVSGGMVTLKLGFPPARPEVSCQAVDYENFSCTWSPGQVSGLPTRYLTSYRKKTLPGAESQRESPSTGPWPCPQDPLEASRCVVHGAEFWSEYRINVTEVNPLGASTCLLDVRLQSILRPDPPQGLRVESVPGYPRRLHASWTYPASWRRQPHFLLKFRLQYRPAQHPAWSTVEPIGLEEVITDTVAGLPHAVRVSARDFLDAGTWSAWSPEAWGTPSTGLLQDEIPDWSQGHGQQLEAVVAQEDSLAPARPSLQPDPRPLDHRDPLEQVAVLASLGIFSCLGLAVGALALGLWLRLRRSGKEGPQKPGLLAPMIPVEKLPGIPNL

[3] = molecular target: T2, K66R mutant of soluble human IL-11Rα (SEQ ID NO: 96) (human) (UniProt Q14626); assay: Biacore
T2 sequence: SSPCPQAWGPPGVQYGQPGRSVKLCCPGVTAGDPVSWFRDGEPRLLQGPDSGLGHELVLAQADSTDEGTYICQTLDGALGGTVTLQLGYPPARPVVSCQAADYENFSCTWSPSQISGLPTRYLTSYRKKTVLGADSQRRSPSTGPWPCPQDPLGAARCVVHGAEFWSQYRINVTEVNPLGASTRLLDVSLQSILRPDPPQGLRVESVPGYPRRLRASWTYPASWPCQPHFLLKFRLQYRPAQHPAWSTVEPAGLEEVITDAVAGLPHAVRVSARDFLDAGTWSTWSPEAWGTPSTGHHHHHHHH

[4] = molecular target: T3, V117E mutant of soluble human IL-11Rα (SEQ ID NO: 95) (human) (UniProt Q14626); assay: Biacore
T3 sequence: T2 sequence with R44K, V95E

binding [1]: binds
B1: hu8E2-TS-306 (antibody, V domains shown)
VH: EVQLLESGGGLVQPGGSLRLSCAASGFTFSWYSMTWVRQAPGKGLEWVSSIVPSGGHTQYADSVKGRFTISRDNSKNTLYLQMNSLRAEDTAVYYCAKGPGWGSFDLWGRGTLVTVSS
VL: DIQMTQSPSSLSASVGDRVTITCQASQDVDKYVEWYQQKPGKAPKLLIYDASNLQTGVPSRFSGSGSGTDFTFTISSLQPEDIATYYCQQYDNLSPTFGPGTKVDIK

binding [1]: binds
B2: hu8E2-TS-7 (antibody, V domains shown)
VH: B1 VH
VL: B1 VL with V29I, D30N, K31N, V33L, E34N, Y91H, D92E, L94Q

binding [1]: binds
B3: hu8E2-TS-51 (antibody, V domains shown)
VH: B1 VH
VL: B1 VL with V29I, D30N, K31N, V33L, E34N, D92E, N93S, L94Q, S95W, T97F

The next lines start with the binder.

B4: hu8E2-TS-4 (antibody, V domains shown)
VH: B1 VH
VL: B1 VL with V29I, D30N, K31N, V33L, E34N, Y91H, D92E, N93F, L94Q
binding [1]: binds

B5: hu8E2-TS-2 (antibody, V domains shown)
VH: B1 VH
VL: B1 VL with V29I, D30N, K31N, V33L, E34N, Y91A, D92E, N93D, L94Q
binding [1]: binds

B6: antibody 8E4 (antibody, human IgG4 S228P, lambda, V domains shown)
VH: EVQLLESGGGLVQPGGSLRLSCAASGFTFSWYFMGWVRQAPGKGLEWVSYIYPSGGSTGYADSVKGRFTISRDNSKNTLYLQMHSLRAEDTAVYYCARDEGYCSSTSCYFDAFDIWGQGTMVTVSS
VL: QSALTQPPSASGSPGQSVAISCTGTSSDVGGYNFVSWYQQHPGKAPKLLIYEVTKRPSGVPDRFSGSKAGNTASLTVSGLQAEDEADYYCSSYGGSNNAGVFGTGTKVTVLG
binding [2]: binds
binding [3]: binds
binding [4]: binds
